Reference: patent US20090123934A1 (published 2009)
Residue numbers refer to the chain shown, from its start. Results are given in words; binding and its absence hold for the method and conditions named. Binding seen in cells or lysates may run through a third protein. Some entries that bind do so weakly or less than the wild type. For some assays here: Tags and fused reporters may be left off the sequences shown. Each block holds one binder with its values, some of them ahead of it.

Columns and labels:
Polo kinase (Polo) [1] = molecular target: T1, Polo kinase (Polo) (Drosophila melanogaster, UniProt P52304 1-576, T182 detected as phosphorylated (over 80%) in Polo bound to Mtrm); assay: co-immunoprecipitation from wild-type ovary extracts with polyclonal anti-Mtrm antibody
T1 construct: Endogenous Polo in ovary extracts; also called polo (FBgn0003124)
T1 sequence (looked up): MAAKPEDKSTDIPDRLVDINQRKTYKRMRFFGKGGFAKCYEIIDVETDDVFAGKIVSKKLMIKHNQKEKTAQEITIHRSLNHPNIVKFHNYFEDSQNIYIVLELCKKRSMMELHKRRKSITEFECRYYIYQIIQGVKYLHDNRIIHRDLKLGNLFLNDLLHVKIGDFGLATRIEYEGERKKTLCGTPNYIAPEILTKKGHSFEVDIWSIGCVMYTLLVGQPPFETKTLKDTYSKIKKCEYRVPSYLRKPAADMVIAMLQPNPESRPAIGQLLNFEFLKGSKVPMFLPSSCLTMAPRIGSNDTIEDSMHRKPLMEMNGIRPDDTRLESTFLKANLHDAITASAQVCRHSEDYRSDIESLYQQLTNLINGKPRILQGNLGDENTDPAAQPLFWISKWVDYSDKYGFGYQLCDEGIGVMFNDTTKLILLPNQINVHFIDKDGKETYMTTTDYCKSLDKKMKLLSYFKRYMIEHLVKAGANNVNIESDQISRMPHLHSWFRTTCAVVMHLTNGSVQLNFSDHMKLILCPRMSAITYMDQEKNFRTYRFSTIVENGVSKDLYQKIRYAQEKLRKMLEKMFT

Polo kinase (Polo) [2] = molecular target: T1, Polo kinase (Polo); assay: co-immunoprecipitation, Western blot (FIG. 4B)
Polo kinase (Polo) [3] = molecular target: T1, Polo kinase (Polo); assay: co-immunoprecipitation with monoclonal anti-Polo antibody from wild-type ovary extracts
[4] = molecular target: T2, GFP-Polo (Drosophila melanogaster) (UniProt P52304); assay: co-immunoprecipitation (FIG. 12)
T2 sequence (looked up): T1 sequence (looked up)

Polo kinase (Polo) [5] = molecular target: T1, Polo kinase (Polo); assay: co-immunoprecipitation (FIG. 12)
[6] = molecular target: T2, GFP-Polo (Drosophila melanogaster); assay: co-immunoprecipitation with anti-GFP antibody from ovary extracts of GFP-polo females
Polo kinase (Polo) [7] = molecular target: T1, Polo kinase (Polo); assay: co-immunoprecipitation with anti-Mtrm antibodies, ovary extracts, mtrm null background

binding (Polo kinase (Polo) [1]): binds
binding (Polo kinase (Polo) [2]): binds
binding (Polo kinase (Polo) [3]): binds
binding [4]: binds
binding (Polo kinase (Polo) [5]): binds
binding [6]: binds
B1: Matrimony (Mtrm) protein, wild-type (protein)
chain: MENSRTPTNKTKITLNRTPTLKERRWNTLKVNTSNVRCSTPIFGNFRSPNLSPIENMGTKGKSPVSPMRFATFKKVPTKVHPKQQQQQQHQHCHRTQLKPPPFVLPKPQEEIIEPEREIKSCSSPDTCSDDSNMETSLALESRRRSIKASNHSYVVNHAANVEQILMHMGLENYVTNFEEAHIDLVELASLERADLVKIGLNTDEDCNRIMDVLHTL

binding (Polo kinase (Polo) [2]): binds
binding (Polo kinase (Polo) [7]): binds
B2: Mtrm^S(124)A (protein)
chain: B1 chain with S124A
